{"source": "patent US20240343734A1", "about": "“NOVEL SMALL MOLECULE INHIBITORS OF PUS7 AND USES THEREOF” (City of Hope, priority 2021, published 2024)", "tested_on": "PUS7 KO PBT003 and PBT707 GSCs", "experiment": "Growth of PUS7 KO GSCs treated with STAT1 inhibitor", "type": "cell-based, human", "conditions": "PUS7 sgRNA, FIG. 16G", "note": "At least one structure is not confirmed: it was looked up by name or label, or the drawing left a doubt."}
{"smiles": "Nc1nc(F)nc2c1ncn2[C@@H]1O[C@H](CO)[C@@H](O)[C@@H]1O", "note": "[fludarabine]", "values": [{"measurement": "rescue of growth inhibition by PUS7 KO", "result": "rescued the growth inhibition by PUS7 KO in GSCs"}]}
